A weaker result is weaker than the reference pair of the same experiment. Tags and fusion partners may be left off the protein sequences shown.

Here are results for one sequence from PMC12494293, “Hexokinase 2 is an RNA-binding protein that regulates mRNA translation independently of glycolysis and induces melanoma cell proliferation”.

The target of this data set is T1, HK2 Δ16 del1-16 (UniProt P52789).
T1 sequence (looked up): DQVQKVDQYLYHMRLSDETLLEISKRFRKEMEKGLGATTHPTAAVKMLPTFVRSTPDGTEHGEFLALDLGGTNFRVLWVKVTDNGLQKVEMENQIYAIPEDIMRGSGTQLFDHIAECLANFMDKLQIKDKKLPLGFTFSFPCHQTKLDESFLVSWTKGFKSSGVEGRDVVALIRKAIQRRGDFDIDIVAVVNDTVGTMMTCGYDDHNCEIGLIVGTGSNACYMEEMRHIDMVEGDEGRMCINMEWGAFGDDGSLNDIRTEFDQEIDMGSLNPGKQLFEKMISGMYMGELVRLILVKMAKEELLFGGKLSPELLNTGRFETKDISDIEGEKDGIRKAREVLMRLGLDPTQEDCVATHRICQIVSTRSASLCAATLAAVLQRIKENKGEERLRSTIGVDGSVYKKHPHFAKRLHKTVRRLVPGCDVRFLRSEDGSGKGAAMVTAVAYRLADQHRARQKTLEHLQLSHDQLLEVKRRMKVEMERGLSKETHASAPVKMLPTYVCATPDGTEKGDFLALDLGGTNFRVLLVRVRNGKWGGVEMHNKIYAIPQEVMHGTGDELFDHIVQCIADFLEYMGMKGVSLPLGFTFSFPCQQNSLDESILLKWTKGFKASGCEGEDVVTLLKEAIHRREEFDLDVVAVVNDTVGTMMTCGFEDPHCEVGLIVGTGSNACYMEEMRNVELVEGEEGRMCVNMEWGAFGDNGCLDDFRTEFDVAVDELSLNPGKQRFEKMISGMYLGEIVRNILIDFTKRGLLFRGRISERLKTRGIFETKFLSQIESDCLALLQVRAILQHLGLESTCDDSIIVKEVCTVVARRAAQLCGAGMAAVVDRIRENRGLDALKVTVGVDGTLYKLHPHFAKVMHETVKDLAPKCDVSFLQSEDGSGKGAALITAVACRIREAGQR
As to the kind of experiment: competition with a labelled probe. The settings on record: 5 µM HK2 Δ16, 25 nM ATTO700 SOX10 SL, needs 500-1000-fold molar excess; 10 mM Tris-HCl pH 7.5, 1 mM EDTA, 100 mM KCl, 0.1 mM DTT, 5% glycerol, 0.01 mg/mL BSA, 0.125 mg/mL yeast tRNA, 20°C; gel at 4°C; recombinant protein; residues 17-917.

With “AGGACGAGCCCCUCUGAGGAGGAGAGGUCC [SOX10 mSL (unlabeled)]”, the binding result is on record as “binds more weakly”.
